The source of these data is US11471674B2, “Electroosmotic convection-enhanced delivery system” (University of Pittsburgh—Of the Commonwealth System of …, priority 2012, dated 2022).

A short description of this data set: Fused silica open tube catheter infusion into hydrogel (tissue surrogate). As to conditions: for penetration distance where the fluorescence intensity was 25% of I0: 1 μA, 40 min, hydrogel −24.7 mV zeta-potential, mean±SEM; for penetration distance where the fluorescence intensity was 25% of I0 / distance where 25% of I0 occurred: N=5; for distance where 25% of I0 occurred: ~50 μm tip, 40 minutes of infusion.

As for `[Ru+2].c1ccc(-c2ccccn2)nc1.c1ccc(-c2ccccn2)nc1.c1ccc(-c2ccccn2)nc1` [Ru(bpy)3^2+, tris(2,2′-bipyridyl)ruthenium(II)], the “ratio of penetration distance at 25% of I0 by electrokinetic transport to maximum distance by diffusion alone (steady state)” value by setting is: (0.5 μA current) 14; (1.5 μA current) 17. For the same compound, the “penetration distance where the fluorescence intensity was 25% of I0” value is reported as 1,489±27 μm (50 μm diameter catheter tip) and 4,516±96 μm (100 μm diameter catheter tip). Besides, the “distance where 25% of I0 occurred” value runs as follows: (0.5 μA) 1,342±67 μm; (1.5 μA) 1,682±36 μm.
